Experimental data from patent US5840832.
For part of these data: At least one result comes from cells or an extract, where the contact may be indirect. Where a protein sequence is shown, tags need not be part of it. For part of these data: For at least one entry, the source does not settle the construct or the ends of the probe. For part of these data: No signal at the amounts used counts as a negative.

Assays:
[1] = molecular target: T1, NF-X1 (plaque filter-bound fusion) (Homo sapiens) (UniProt Q12986); assay: binding assay; conditions: protein in a lysate after overexpression, protein details: beta-galactosidase fusion, lambda gt11 plaque lift
T1 sequence (limits assumed): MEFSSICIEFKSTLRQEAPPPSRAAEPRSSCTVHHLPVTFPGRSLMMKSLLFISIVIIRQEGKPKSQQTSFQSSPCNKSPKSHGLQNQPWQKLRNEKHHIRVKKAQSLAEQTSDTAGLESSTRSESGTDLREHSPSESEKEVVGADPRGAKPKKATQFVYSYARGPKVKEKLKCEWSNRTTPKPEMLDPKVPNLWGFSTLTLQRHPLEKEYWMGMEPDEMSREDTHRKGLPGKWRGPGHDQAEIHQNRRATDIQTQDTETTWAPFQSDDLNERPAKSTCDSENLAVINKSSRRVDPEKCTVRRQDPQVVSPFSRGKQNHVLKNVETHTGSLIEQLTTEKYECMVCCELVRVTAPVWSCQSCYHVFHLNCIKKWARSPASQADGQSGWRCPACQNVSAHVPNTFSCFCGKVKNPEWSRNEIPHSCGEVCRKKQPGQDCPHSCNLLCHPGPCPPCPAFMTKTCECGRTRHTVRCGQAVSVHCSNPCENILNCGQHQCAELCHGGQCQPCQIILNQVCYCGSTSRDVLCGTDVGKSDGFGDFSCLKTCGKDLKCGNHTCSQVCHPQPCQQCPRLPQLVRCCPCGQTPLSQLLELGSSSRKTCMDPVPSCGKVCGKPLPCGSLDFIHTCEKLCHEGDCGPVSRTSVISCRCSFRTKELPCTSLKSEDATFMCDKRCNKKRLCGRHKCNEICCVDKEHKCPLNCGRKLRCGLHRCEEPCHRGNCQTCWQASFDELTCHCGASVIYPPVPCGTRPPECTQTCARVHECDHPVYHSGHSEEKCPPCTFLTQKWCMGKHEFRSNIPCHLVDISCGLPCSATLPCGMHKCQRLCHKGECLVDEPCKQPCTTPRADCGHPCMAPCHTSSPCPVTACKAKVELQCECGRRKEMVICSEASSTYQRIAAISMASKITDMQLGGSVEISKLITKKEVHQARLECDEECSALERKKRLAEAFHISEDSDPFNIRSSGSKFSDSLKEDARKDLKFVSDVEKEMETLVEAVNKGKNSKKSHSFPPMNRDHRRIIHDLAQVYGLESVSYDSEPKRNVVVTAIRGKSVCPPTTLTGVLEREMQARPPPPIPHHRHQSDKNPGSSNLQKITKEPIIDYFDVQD

NF-X1 (Homo sapiens) [2] = molecular target: T2, NF-X1 (Homo sapiens) (UniProt Q12986); assay: competition with a labelled probe; conditions: EMSA, 100-fold excess cold competitor has no effect; purified recombinant protein
T2 sequence (limits assumed): T1 sequence (limits assumed)

NF-X1 (Homo sapiens) [3] = molecular target: T2, NF-X1 (Homo sapiens); assay: EMSA; conditions: 13 mM Tris pH 7.9, 60 mM KCl, 12.5 mM NaCl, 12% glycerol, poly dIdC, room temperature; purified recombinant protein; label: 32P
[4] = molecular target: T3, NF-X1 truncations D and E (cysteine-rich region) (Homo sapiens) (UniProt Q12986); assay: binding assay; conditions: plaque filter binding; 30 uM ZnSO4, 40 mM KCl, 4 C; other truncations lacking parts of the region do not bind; protein in a lysate after overexpression; label: 32P
T3 sequence: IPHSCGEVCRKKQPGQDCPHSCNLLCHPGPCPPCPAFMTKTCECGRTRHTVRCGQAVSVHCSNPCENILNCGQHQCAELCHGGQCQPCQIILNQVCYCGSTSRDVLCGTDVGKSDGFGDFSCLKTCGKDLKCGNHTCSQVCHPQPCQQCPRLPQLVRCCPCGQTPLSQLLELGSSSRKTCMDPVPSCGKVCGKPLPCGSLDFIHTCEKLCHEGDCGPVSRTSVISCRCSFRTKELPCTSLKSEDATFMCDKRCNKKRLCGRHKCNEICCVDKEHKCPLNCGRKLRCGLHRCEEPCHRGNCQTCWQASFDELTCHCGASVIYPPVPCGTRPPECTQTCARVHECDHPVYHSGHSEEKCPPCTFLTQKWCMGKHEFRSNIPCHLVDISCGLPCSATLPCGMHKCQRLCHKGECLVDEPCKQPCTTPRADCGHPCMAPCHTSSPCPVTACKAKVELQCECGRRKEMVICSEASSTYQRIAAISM

[5] = plaque filter lift screening with multimerized probe, label: 32P, concatenated

AAAATCTGCCCAGAGACAGATGAGGTCCTT (double strand) [HLA-DQB X box]
binding result [1, 5]: binds

AAATATTTTTCTGATTGGCCAAAGAGT (double strand) [HLA-DRA Y box]
binding result (NF-X1 (Homo sapiens) [2]): no binding

ACTTTCTGCCTAGTGAGCAATGACTCATAC (double strand) [HLA-DPB X box]
binding result [1, 5]: binds

ATTCGATCGGGGCGGGGCGAGC (double strand) [SP1 motif]
binding result (NF-X1 (Homo sapiens) [2]): no binding

CCCTTCCCCTAGCAACAGATG (double strand) [HLA-DRA X1 box]
binding result (NF-X1 (Homo sapiens) [3]): binds
binding result [4]: binds

GTGGGAAATTCCGTGGGAAATTCCG (double strand) [PRDII element of interferon-beta gene]
binding result (NF-X1 (Homo sapiens) [2]): no binding

TGTGTCCTGGACCCTTTGCAAGA (double strand) [HLA-DRA S box]
binding result ([1]; plaque filter lift screening): no binding
binding result (NF-X1 (Homo sapiens) [2]): no binding
